# Assay results reported in the supplement of paper PMC3334620.
# In all, about 33,000 sequences were measured (“E-score (-0.5 to 0.5)”: median about -0.0034, highest 2% from about 0.25 on). This is one part of the list.
# Target: T1, Yap3 (UniProt P38749)
# T1 sequence: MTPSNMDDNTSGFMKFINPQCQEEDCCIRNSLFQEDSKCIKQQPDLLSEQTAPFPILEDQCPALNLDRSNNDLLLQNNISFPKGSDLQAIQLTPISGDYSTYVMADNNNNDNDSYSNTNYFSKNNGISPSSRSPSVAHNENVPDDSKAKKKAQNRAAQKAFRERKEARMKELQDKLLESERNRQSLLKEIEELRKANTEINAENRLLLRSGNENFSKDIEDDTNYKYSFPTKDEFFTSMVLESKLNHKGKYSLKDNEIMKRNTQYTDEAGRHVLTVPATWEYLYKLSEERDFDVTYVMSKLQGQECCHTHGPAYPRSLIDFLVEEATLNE
# Experiment: PBM E-score (8-mer binding enrichment) (E-score (-0.5 to 0.5)); higher = stronger / more preferred TF binding
# Conditions: protein concentration: 100 nM; construct: GST-full length
# Outline: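 For each ungapped eight-base word taken together with its reverse complement, the Universal PBM Analysis Suite assigned an E-score. Binding data came from GST-tagged yeast transcription factors, applied at about 100-200 nM, on universal all-10-mer Agilent arrays made double-stranded by primer extension. Fluorescent anti-GST marked bound protein, and scans were normalised with masliner.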
row,Sequence,PBM E-score
1,ACCGCAAA,0.109
2,CCCGGGAA,-0.11
3,AATTCTTA,0.134
4,ATTCGGGA,-0.101
5,CCATCGTA,0.0169
6,AGTTTATC,0.141
7,CTTTGCCA,-0.0701
8,ATTGCGGC,-0.0199
9,CTGGAGGC,-0.203
10,ATTATCTG,0.119
11,CCGCCGAG,-0.0306
12,ATCTTACG,0.208
13,AAGTTTGG,0.142
14,AATAGAGG,-0.08
15,ATTAACGA,0.134
16,CGACAACG,0.0404
17,AACTGCGG,-0.0201
18,AGAGTATG,-0.0564
19,CGATACAG,-0.141
20,CCAATTTC,0.187
21,AAGATCGC,-0.0451
22,CCGGGAAG,-0.149
23,CAGTAGCC,-0.186
24,AAATCGCT,-0.121
25,CCAGTGGG,-0.32

row,Sequence,PBM E-score
1,ATAGAGTC,-0.181
2,ACCTTTGC,-0.038
3,GGTACTTA,-0.122
4,AGGTTAAC,0.187
5,CATTGACG,0.0656
6,CCGTAGCA,-0.0285
7,GAACGAAA,0.148
8,ACACGTCC,-0.269
9,CCGTCCGA,-0.166
10,ACGACATG,0.119
11,TGGTACCA,-0.00998
12,CAGCAATC,0.0309
13,GGGTTAGA,-0.144
14,GATAGGAC,-0.176
15,CATCAACG,-0.00815
16,ACATCACT,0.112
17,AAGAGTGT,-0.0373
18,CAAGAAGA,0.08
19,CTATTCAC,0.133
20,AAAACCCG,0.116
21,TAATCCTA,0.0153
22,AAGCGATC,0.0482
23,AAACACAC,0.179
24,CACGAACC,-0.0461
25,AACATGAT,0.229

row,Sequence,PBM E-score
1,GGGGCTAC,-0.297
2,ACGGTACT,-0.0293
3,GGATAGAC,-0.114
4,CGCAAGAG,0.0194
5,ACCTACAT,0.151
6,GGCTGGAA,-0.0643
7,ATGTGTCC,-0.004
8,CGTTTTGC,0.0549
9,CCAAAGTC,-0.174
10,CCTTCACG,0.0549
11,CCCTGCAG,-0.081
12,CGTGAGAG,-0.147
13,GGCCAAGA,-0.155
14,AACTAAGT,0.00048
15,CAAAAACC,0.111
16,GCATTACA,0.1
17,CTGACAGC,-0.133
18,GCTGGGGA,-0.231
19,CTCGCACA,0.0169
20,GGTACGAC,-0.107
21,CATCCCAA,0.0221
22,CAGACAGA,-0.0351
23,ACGATCAT,-0.017
24,CATATCTC,0.0984
25,GCCGAGAC,-0.159

row,Sequence,PBM E-score
1,GCACTCCA,-0.147
2,ACTTTCAG,-0.104
3,CACTCCGC,-0.0508
4,CTCGATGC,0.0133
5,GGCTACTA,0.073
6,CACGTGAA,0.0672
7,AAAATAAC,0.0743
8,AGCACACG,-0.108
9,AGTGGATC,-0.0685
10,ATATGGCG,0.0887
11,GGTCAAGA,-0.0355
12,CGCGGACC,0.00612
13,CCTACTAG,0.00115
14,CAGGATCA,-0.0432
15,CAGGGTAA,0.0173
16,TATGGAAA,0.226
17,CGCCGAAA,0.0968
18,CGGACATC,-0.153
19,ATCGCTTG,-0.066
20,AAGTACGT,0.159
21,CGGGATCA,-0.111
22,CCTTTGTA,-0.135
23,CCACTGGG,-0.261
24,AGGCAATC,0.0761
25,ACTTTTCA,0.118

row,Sequence,PBM E-score
1,ACGAATGC,0.0672
2,GTCGGCAC,-0.111
3,AGCCCAAT,0.0144
4,CTACCCAG,-0.0458
5,CCGCATCC,-0.234
6,TAGCCTGA,-0.118
7,CTGAAGCA,-0.107
8,ACAAAAGG,-0.08
9,AGGGTTCC,-0.153
10,CCGGCGAC,-0.151
11,ACAATAAC,0.169
12,GCAACTCA,-0.0183
13,CGGTTACG,-0.0599
14,CAGGGGAG,-0.254
15,CTCTTCGC,-0.132
16,ATTATAGA,0.123
17,CACTTAGG,-0.0938
18,GGCCCTTA,-0.0239
19,ACGTAATA,0.44
20,GGTACATA,0.0587
21,GATCGATA,0.132
22,ATTTATTC,0.212
23,ATTGGGTA,0.179
24,AATCGCAC,-0.188
25,AACACGAT,0.0988

row,Sequence,PBM E-score
1,CCACAGAA,-0.107
2,GAAAACGC,-0.0899
3,AGGGGGAT,-0.18
4,GAATTTTA,0.169
5,ATGTGAGG,0.00272
6,ACTTGCCA,-0.0462
7,CTCATAGC,-0.194
8,ACTAGAAC,0.12
9,GGAATGCA,0.102
10,ATCACCGC,-0.0486
11,ACTCGCCA,0.142
12,ACCGAGCA,0.0359
13,AGAGACTG,-0.246
14,AGTTAGAT,-0.0437
15,GTTTATCA,0.214
16,ACGCGTTA,0.0763
17,ACGAGTTG,0.0523
18,AATAGAAG,0.0527
19,CAGAGACC,-0.174
20,AAGTTCTG,0.0338
21,TAGCAGGA,-0.0369
22,ATTCTGCC,0.091
23,GGGCGAAA,0.0712
24,GGTTAGAC,-0.00764
25,AACCTCGG,-0.00934

row,Sequence,PBM E-score
1,CTGGATAC,-0.00517
2,CTGCTCGC,0.0118
3,CGCGCGGA,0.0752
4,CTCGCCTC,-0.0751
5,CTTAGAAA,0.0225
6,CTGTCCGA,0.00146
7,CATATCCA,-0.141
8,CACAAGAC,-0.122
9,AACAGGCT,-0.00531
10,CAAATCCC,-0.0466
11,AAGCCTGG,-0.0378
12,CCTGTGGC,-0.209
13,ATGGATCA,-0.0431
14,TGGCTTAA,0.162
15,AAGGTTCA,-0.0126
16,TCGCTAGA,-0.0924
17,GCGCTAGA,0.009
18,TAACTCTA,0.0162
19,CAGAACAC,-0.0794
20,AGGCCGAC,-0.101
21,TTGGCCAA,-0.0814
22,AAGAGTAT,-0.0379
23,AGCACAGC,-0.0999
24,AGCTGTGG,-0.0874
25,AATGTAGG,-0.0573

row,Sequence,PBM E-score
1,AGTCCCTG,-0.281
2,CCCTAGAC,-0.235
3,GACTTCGC,0.151
4,CTGTTTGA,0.0939
5,CGCTGTTC,-0.0746
6,AGGCTACG,-0.275
7,AGTTTTAA,0.146
8,GTAAAAAC,0.15
9,GCTCGGAA,-0.0694
10,GCTCCCTA,-0.209
11,CCTAAACG,-0.108
12,ACCGAACG,-0.0625
13,GCGCGAAA,0.132
14,ACACTCTG,-0.092
15,CCGCCACC,-0.155
16,ACTCTGCG,-0.0354
17,ATAGCGCG,0.192
18,CAGAACCG,0.0474
19,GAACTATC,0.069
20,CTAATCCA,0.041
21,CAACAAAC,0.0127
22,GTGCACAC,-0.151
23,TAGCCCAA,0.0307
24,CTCTGGAC,0.00343
25,CTCGGCTA,-0.0459

row,Sequence,PBM E-score
1,GCATAAGA,0.0573
2,ATAGTACC,0.102
3,GGTACCAC,-0.194
4,ATTTGGCG,0.0286
5,AGACTCGA,-0.0951
6,AAATTTTG,0.0174
7,ACTGTCCT,-0.012
8,AATTTCGG,0.0925
9,AAGTCAGC,0.0521
10,AGCACTGC,-0.0181
11,ATTGCCAG,0.203
12,AATACCAC,0.101
13,GCTTCTCC,-0.109
14,CATCGGCG,-0.136
15,ACAGTGAC,0.0408
16,CGTCAATA,-0.0519
17,ATGCGGAC,-0.151
18,CTGGTACC,-0.197
19,TTCGCCAA,-0.264

# Some of the entries above, reformatted:
row	Sequence	PBM E-score
20	CCAATTTC	0.187
21	AAGATCGC	-0.0451
22	CCGGGAAG	-0.149
23	CAGTAGCC	-0.186
24	AAATCGCT	-0.121
25	CCAGTGGG	-0.32
1	ATAGAGTC	-0.181
2	ACCTTTGC	-0.038
3	GGTACTTA	-0.122
4	AGGTTAAC	0.187
5	CATTGACG	0.0656
6	CCGTAGCA	-0.0285
7	GAACGAAA	0.148
8	ACACGTCC	-0.269
9	CCGTCCGA	-0.166
10	ACGACATG	0.119
11	TGGTACCA	-0.00998
12	CAGCAATC	0.0309
13	GGGTTAGA	-0.144
14	GATAGGAC	-0.176
15	CATCAACG	-0.00815
16	ACATCACT	0.112
17	AAGAGTGT	-0.0373
18	CAAGAAGA	0.08
19	CTATTCAC	0.133
20	AAAACCCG	0.116
21	TAATCCTA	0.0153
22	AAGCGATC	0.0482
23	AAACACAC	0.179
24	CACGAACC	-0.0461
25	AACATGAT	0.229
1	GGGGCTAC	-0.297
2	ACGGTACT	-0.0293
3	GGATAGAC	-0.114
4	CGCAAGAG	0.0194
5	ACCTACAT	0.151
6	GGCTGGAA	-0.0643
7	ATGTGTCC	-0.004
8	CGTTTTGC	0.0549
9	CCAAAGTC	-0.174
10	CCTTCACG	0.0549
11	CCCTGCAG	-0.081
12	CGTGAGAG	-0.147
